PubChem BioAssay AID652243 – Drosophila RNAi Screening Center, 2013
Aim: 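Knock-downs that decrease or increase androgen receptor reporter signal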 (primary screen). Cell system: Drosophila S2R+ cells. Reagent: long dsRNA against Drosophila genes. Duration: 72 h (48 h, then 24 h hormone). Conditions: synthetic androgen R1881 at 10 nM for 24 h. Detection: 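Firefly light from an androgen-responsive reporter and Renilla control light per well, raw and unnormalised, for each of two replicates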. Scale: firefly reporter light: higher = more light from androgen-responsive reporter; Renilla control light: higher = more constitutive control signal (cell number, transfection). Hit rule: 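Hit when the log firefly-to-Renilla ratio dropped or increased by a fixed fold versus the mean of GFP or LacZ controls across duplicate plates; lowering cut given as 1.5 and as 3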. Meaning of the calls: active = hit: reporter lowered or raised; inactive = no hit.
The deposit covers about 24,000 reagents; shown is a random part of those with a known target gene and a result. In the full data, 246 (1%) are marked active. 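Plates not normalised; calls are printed but the firefly/Renilla ratio behind them is not deposited; fold cut for lowering reported inconsistently.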 Raw values vary from plate to plate and are shown uncorrected. The numbers tell different reagents against one gene apart. Names joined by + are all predicted targets of the reagent. Not stated in the record: the amount of reagent.

With knock-down of Grx1t #1, the record shows firefly reporter light, replicate 1 = 1.82e5; firefly reporter light, replicate 2 = 1.95e5; Renilla control light, replicate 1 = 1.25e6; Renilla control light, replicate 2 = 1.64e6; inactive. With knock-down of Grx1t #2, the screen gave firefly reporter light, replicate 1 = 3.21e5; firefly reporter light, replicate 2 = 3.11e5; Renilla control light, replicate 1 = 9.93e5; Renilla control light, replicate 2 = 1.33e6; inactive. After knock-down of Noc1 the results were firefly reporter light, replicate 1 = 1.02e6; firefly reporter light, replicate 2 = 9.39e5; Renilla control light, replicate 1 = 1.02e6; Renilla control light, replicate 2 = 8.42e5; inactive. Ctl2 #1 showed firefly reporter light, replicate 1 = 1.09e5; firefly reporter light, replicate 2 = 97720; Renilla control light, replicate 1 = 8.51e5; Renilla control light, replicate 2 = 4.55e5; inactive. Ctl2 #2 gave firefly reporter light, replicate 1 = 3.32e5; firefly reporter light, replicate 2 = 3.82e5; Renilla control light, replicate 1 = 1.51e6; Renilla control light, replicate 2 = 1.38e6; inactive. Mlp60A #1 showed firefly reporter light, replicate 1 = 2.18e5; firefly reporter light, replicate 2 = 2.94e5; Renilla control light, replicate 1 = 1.25e6; Renilla control light, replicate 2 = 1.64e6; inactive.

Mlp60A #2 scored firefly reporter light, replicate 1 = 6.97e5; firefly reporter light, replicate 2 = 6.53e5; Renilla control light, replicate 1 = 1.71e6; Renilla control light, replicate 2 = 1.33e6; inactive. With knock-down of Mlp60A #3 the results were firefly reporter light, replicate 1 = 6.39e5; firefly reporter light, replicate 2 = 9.38e5; Renilla control light, replicate 1 = 2.22e5; Renilla control light, replicate 2 = 2.47e5; inactive. For imd #1, the values are firefly reporter light, replicate 1 = 7.23e5; firefly reporter light, replicate 2 = 5.84e5; Renilla control light, replicate 1 = 1.45e6; Renilla control light, replicate 2 = 1.28e6; inactive. imd #2 showed firefly reporter light, replicate 1 = 2.66e5; firefly reporter light, replicate 2 = 2.14e5; Renilla control light, replicate 1 = 7.63e5; Renilla control light, replicate 2 = 7.27e5; inactive. Depletion of Oamb #1 gave: firefly reporter light, replicate 1 = 1.65e5; firefly reporter light, replicate 2 = 1.48e5; Renilla control light, replicate 1 = 1.26e5; Renilla control light, replicate 2 = 1.68e5; inactive. Knock-down of Oamb #2 came out at: firefly reporter light, replicate 1 = 1.76e5; firefly reporter light, replicate 2 = 2.30e5; Renilla control light, replicate 1 = 1.93e6; Renilla control light, replicate 2 = 2.04e6; inactive.

Knock-down of Oamb #3 resulted in: firefly reporter light, replicate 1 = 2.35e5; firefly reporter light, replicate 2 = 3.22e5; Renilla control light, replicate 1 = 3.40e6; Renilla control light, replicate 2 = 3.38e6; inactive. For CG34442 the deposit lists firefly reporter light, replicate 1 = 7.90e5; firefly reporter light, replicate 2 = 7.17e5; Renilla control light, replicate 1 = 2.08e6; Renilla control light, replicate 2 = 2.21e6; inactive. CanA-14F + Pp2B-14D showed inactive. For Mst33A #1, the entry reads firefly reporter light, replicate 1 = 2.61e5; firefly reporter light, replicate 2 = 2.57e5; Renilla control light, replicate 1 = 2.08e6; Renilla control light, replicate 2 = 1.92e6; inactive. Silencing of Mst33A #2 resulted in: firefly reporter light, replicate 1 = 3.21e5; firefly reporter light, replicate 2 = 3.17e5; Renilla control light, replicate 1 = 7.22e5; Renilla control light, replicate 2 = 8.09e5; inactive. Against sdk, the values are firefly reporter light, replicate 1 = 36060; firefly reporter light, replicate 2 = 30002; Renilla control light, replicate 1 = 3.55e5; Renilla control light, replicate 2 = 2.03e5; inactive.

kz gave firefly reporter light, replicate 1 = 2.71e5; firefly reporter light, replicate 2 = 1.97e5; Renilla control light, replicate 1 = 3.95e6; Renilla control light, replicate 2 = 3.47e6; inactive. Depletion of sand resulted in: firefly reporter light, replicate 1 = 2.16e5; firefly reporter light, replicate 2 = 3.76e5; Renilla control light, replicate 1 = 1.62e6; Renilla control light, replicate 2 = 1.51e6; inactive. With knock-down of uno #1, the screen gave firefly reporter light, replicate 1 = 3.95e5; firefly reporter light, replicate 2 = 5.13e5; Renilla control light, replicate 1 = 2.77e6; Renilla control light, replicate 2 = 2.23e6; inactive. Depletion of uno #2 gave: firefly reporter light, replicate 1 = 3.41e5; firefly reporter light, replicate 2 = 4.17e5; Renilla control light, replicate 1 = 5.26e5; Renilla control light, replicate 2 = 8.74e5; inactive. Depletion of SLIRP1 + anox gave: firefly reporter light, replicate 1 = 1.15e5; firefly reporter light, replicate 2 = 1.35e5; Renilla control light, replicate 1 = 9.50e5; Renilla control light, replicate 2 = 1.03e6; inactive. BOD1 #1 gave firefly reporter light, replicate 1 = 72152; firefly reporter light, replicate 2 = 81628; Renilla control light, replicate 1 = 6.07e5; Renilla control light, replicate 2 = 4.36e5; inactive.

BOD1 #2 showed firefly reporter light, replicate 1 = 5.24e5; firefly reporter light, replicate 2 = 6.66e5; Renilla control light, replicate 1 = 9.37e5; Renilla control light, replicate 2 = 9.54e5; inactive. nub #1 scored firefly reporter light, replicate 1 = 1.80e5; firefly reporter light, replicate 2 = 2.10e5; Renilla control light, replicate 1 = 1.59e6; Renilla control light, replicate 2 = 1.42e6; inactive. Silencing of nub #2 gave: firefly reporter light, replicate 1 = 1.11e5; firefly reporter light, replicate 2 = 1.60e5; Renilla control light, replicate 1 = 9.53e5; Renilla control light, replicate 2 = 1.13e6; inactive. Knock-down of nub #3 came out at: firefly reporter light, replicate 1 = 1.61e5; firefly reporter light, replicate 2 = 3.49e5; Renilla control light, replicate 1 = 7.58e5; Renilla control light, replicate 2 = 9.67e5; inactive. nub #4 gave firefly reporter light, replicate 1 = 7.47e5; firefly reporter light, replicate 2 = 6.81e5; Renilla control light, replicate 1 = 6.21e5; Renilla control light, replicate 2 = 7.21e5; inactive. Knock-down of nub #5 gave: firefly reporter light, replicate 1 = 8.14e5; firefly reporter light, replicate 2 = 4.94e5; Renilla control light, replicate 1 = 1.21e6; Renilla control light, replicate 2 = 1.08e6; inactive.

Against nub #6, the values are firefly reporter light, replicate 1 = 4.68e5; firefly reporter light, replicate 2 = 6.03e5; Renilla control light, replicate 1 = 1.95e5; Renilla control light, replicate 2 = 2.84e5; active. nub #7 gave firefly reporter light, replicate 1 = 3.86e5; firefly reporter light, replicate 2 = 2.87e5; Renilla control light, replicate 1 = 2.08e6; Renilla control light, replicate 2 = 2.16e6; active.

Reprinted from the listing, 3 entries:
Ctl2 #1 → firefly reporter light, replicate 1 = 1.09e5; firefly reporter light, replicate 2 = 97720; Renilla control light, replicate 1 = 8.51e5; Renilla control light, replicate 2 = 4.55e5; activity call = inactive
Ctl2 #2 → firefly reporter light, replicate 1 = 3.32e5; firefly reporter light, replicate 2 = 3.82e5; Renilla control light, replicate 1 = 1.51e6; Renilla control light, replicate 2 = 1.38e6; activity call = inactive
Mlp60A #1 → firefly reporter light, replicate 1 = 2.18e5; firefly reporter light, replicate 2 = 2.94e5; Renilla control light, replicate 1 = 1.25e6; Renilla control light, replicate 2 = 1.64e6; activity call = inactive
